PubChem BioAssay AID686943 – Drosophila RNAi Screening Center, 2013

Assay: 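Search across the genome for regulators of signalling from receptor tyrosine kinase to ERK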 (primary screen)
System: Drosophila S2R+ haemocyte-like cells expressing YFP-tagged ERK (Rolled)
Reagents: long dsRNA against Drosophila genes
Treatment: insulin stimulation versus unstimulated cells; dose and duration not given
Measured: 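Antibody staining for doubly phosphorylated ERK divided by ERK-YFP signal, as plate z-scores, in insulin-treated and untreated cells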
Reading the numbers: replicate 1, z-score of dpERK with insulin: higher = more active ERK per ERK-YFP after insulin
The deposit covers about 23,000 reagents; below is a random part of those with a known target gene and a result. 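Extra replicates exist only for a retested subset of genes; insulin dose and duration not given; both raised and lowered dpERK matter.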 Names joined by + are all predicted targets of the reagent. Not all columns of the deposit are shown. No sequences are given here. Not given: the amount of reagent, the time to read-out.

replicate 1, z-score of dpERK with insulin, by gene knocked down and reagent
Sam-S (S-adenosylmethionine Synthetase): DRSC00758 2.38
CG42562: DRSC06453 0.13
CG8155: DRSC07084 0.25; DRSC21543 0.77
CG1792: DRSC15290 -0.1
Bcs1 (Bcs1 chaperone): DRSC02789 -0.13
Skp2 + CG14645: DRSC12231 1.02
CG13622: DRSC14624 -0.29
FMRFa (FMRFamide): DRSC07428 -0.35
CG12231: DRSC19445 -0.36
CG32032: DRSC08961 -0.68
nAChRalpha5 (nicotinic Acetylcholine Receptor alpha5): DRSC01360 1.71; DRSC01946 0.95; DRSC01947 1.12; DRSC22785 0.47
CG5167: DRSC15728 0.69
CG5897: DRSC10555 0.86
ema (endosomal maturation defective): DRSC14536 -1.21
HP5 (Heterochromatin protein 5): DRSC19773 1
Spn85F (Serpin 85F): DRSC14545 -0.08
eIF2Balpha (eukaryotic translation initiation factor 2B subunit alpha): DRSC16332 0.87
CG32354: DRSC10763 -0.36; DRSC10775 1.57; DRSC21919 -0.39
CG13299: DRSC09973 0.27
E(spl)mbeta-HLH (Enhancer of split mbeta, helix-loop-helix): DRSC16697 -0.01
CG5906: DRSC10557 1.48
Arp6 (Actin-related protein 6): DRSC19326 0.15
Rabex-5 (Rabaptin-5-associated exchange factor for Rab5): DRSC08628 0.45
Tango11 (Transport and Golgi organization 11): DRSC03890 0.59; DRSC03892 -0.57
Vha16-3 (Vacuolar H[+] ATPase 16kD subunit 3): DRSC10872 0.16
CG30432: DRSC04833 -0.41
Nup58 (Nucleoporin 58kD): DRSC16235 -1.36
bab2 (bric a brac 2): DRSC08150 0.17; DRSC08380 -2.08
spri (sprint): DRSC17846 -4.88; DRSC17984 0.03; DRSC17985 -0.13; DRSC17986 0.07; DRSC17988 0.1; DRSC17989 -0.8; DRSC22927 0.89
CG42496 + Ppcdc: DRSC03886 3.19
gol (goliath): DRSC04689 -0.81
alrm (astrocytic leucine-rich repeat molecule): DRSC14436 -0.4
CG5850: DRSC02905 0.26
CG17715: DRSC11950 0.68
CG15046: DRSC19622 1.03
Cf2 (Chorion factor 2): DRSC00744 -5.47
CG10887: DRSC14277 -0.12
Glyp (Glycogen phosphorylase): DRSC00752 -1.18
cathD (cathepsin D): DRSC07588 -0.13
Mdr50 (Multi drug resistance 50): DRSC07467 0.07
CG11555: DRSC00315 -0.65
snama (something that sticks like glue): DRSC04049 0.54
tio (tiptop): DRSC03739 0.58
